Experimental data as given in article PMC5358892.
Results are given in words; binding and its absence hold for the method and conditions named. Some entries that bind do so weakly or less than the wild type.

Target: T1, endogenous IRF3 (L929 cells) (mouse (endogenous in L929)), P70671
T1 chain: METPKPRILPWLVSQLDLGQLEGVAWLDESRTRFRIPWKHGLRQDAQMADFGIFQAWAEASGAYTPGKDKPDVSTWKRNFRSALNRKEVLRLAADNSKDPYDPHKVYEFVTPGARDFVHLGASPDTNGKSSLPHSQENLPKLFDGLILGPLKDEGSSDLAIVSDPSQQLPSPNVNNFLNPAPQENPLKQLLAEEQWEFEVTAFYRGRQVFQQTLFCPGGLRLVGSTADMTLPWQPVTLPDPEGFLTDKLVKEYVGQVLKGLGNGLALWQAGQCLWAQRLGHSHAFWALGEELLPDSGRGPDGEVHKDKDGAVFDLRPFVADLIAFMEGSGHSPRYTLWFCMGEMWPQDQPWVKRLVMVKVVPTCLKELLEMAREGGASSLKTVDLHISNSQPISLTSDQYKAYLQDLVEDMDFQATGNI
Assay: native gel or EMSA; native PAGE of extracts of L929 cells (control or Rnf185 siRNA) treated with HT-DNA, poly(I:C) or cGAMP, immunoblot for IRF3 dimerization
Details: remark: other sources report otherwise

B1: endogenous IRF3 (L929 cells), P70671 1-419 (protein)
chain: METPKPRILPWLVSQLDLGQLEGVAWLDESRTRFRIPWKHGLRQDAQMADFGIFQAWAEASGAYTPGKDKPDVSTWKRNFRSALNRKEVLRLAADNSKDPYDPHKVYEFVTPGARDFVHLGASPDTNGKSSLPHSQENLPKLFDGLILGPLKDEGSSDLAIVSDPSQQLPSPNVNNFLNPAPQENPLKQLLAEEQWEFEVTAFYRGRQVFQQTLFCPGGLRLVGSTADMTLPWQPVTLPDPEGFLTDKLVKEYVGQVLKGLGNGLALWQAGQCLWAQRLGHSHAFWALGEELLPDSGRGPDGEVHKDKDGAVFDLRPFVADLIAFMEGSGHSPRYTLWFCMGEMWPQDQPWVKRLVMVKVVPTCLKELLEMAREGGASSLKTVDLHISNSQPISLTSDQYKAYLQDLVEDMDFQATGNI
binding: binds
